Publication PMC13498733

Amino acid sequences for entries named in this document (tags omitted). A change or cut given only in a name is not applied to a line headed by its entry. Residues count along the entry.
UniProt P11260: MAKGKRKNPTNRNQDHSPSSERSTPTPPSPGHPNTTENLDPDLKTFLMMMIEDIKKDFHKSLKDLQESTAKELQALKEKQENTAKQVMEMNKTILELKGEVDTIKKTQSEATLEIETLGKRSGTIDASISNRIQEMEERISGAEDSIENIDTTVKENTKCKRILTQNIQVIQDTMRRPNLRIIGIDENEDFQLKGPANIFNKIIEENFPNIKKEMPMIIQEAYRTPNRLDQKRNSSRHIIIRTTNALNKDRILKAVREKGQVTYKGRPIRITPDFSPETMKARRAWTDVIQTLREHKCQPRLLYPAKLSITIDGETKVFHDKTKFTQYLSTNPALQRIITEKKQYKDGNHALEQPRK
UniProt Q9UN81: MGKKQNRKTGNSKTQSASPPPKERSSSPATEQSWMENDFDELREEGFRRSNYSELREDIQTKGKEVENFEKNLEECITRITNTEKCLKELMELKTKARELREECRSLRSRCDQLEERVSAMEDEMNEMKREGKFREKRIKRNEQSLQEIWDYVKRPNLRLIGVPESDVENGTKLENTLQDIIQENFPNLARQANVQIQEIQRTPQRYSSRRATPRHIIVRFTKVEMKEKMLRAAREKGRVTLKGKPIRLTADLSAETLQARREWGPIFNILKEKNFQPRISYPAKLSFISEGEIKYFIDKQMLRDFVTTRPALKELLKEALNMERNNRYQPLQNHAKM
UniProt Q9HC52: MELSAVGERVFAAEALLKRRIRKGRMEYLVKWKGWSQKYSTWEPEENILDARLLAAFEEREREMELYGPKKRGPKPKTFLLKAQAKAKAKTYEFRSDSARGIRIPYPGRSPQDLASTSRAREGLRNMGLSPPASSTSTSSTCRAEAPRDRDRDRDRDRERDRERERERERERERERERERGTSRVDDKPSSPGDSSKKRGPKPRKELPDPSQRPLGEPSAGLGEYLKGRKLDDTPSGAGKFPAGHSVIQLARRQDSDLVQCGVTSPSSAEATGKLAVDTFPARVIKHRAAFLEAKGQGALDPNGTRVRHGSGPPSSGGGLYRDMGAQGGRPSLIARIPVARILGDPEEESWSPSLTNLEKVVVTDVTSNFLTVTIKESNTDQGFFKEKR
UniProt P06396, residues 28-782: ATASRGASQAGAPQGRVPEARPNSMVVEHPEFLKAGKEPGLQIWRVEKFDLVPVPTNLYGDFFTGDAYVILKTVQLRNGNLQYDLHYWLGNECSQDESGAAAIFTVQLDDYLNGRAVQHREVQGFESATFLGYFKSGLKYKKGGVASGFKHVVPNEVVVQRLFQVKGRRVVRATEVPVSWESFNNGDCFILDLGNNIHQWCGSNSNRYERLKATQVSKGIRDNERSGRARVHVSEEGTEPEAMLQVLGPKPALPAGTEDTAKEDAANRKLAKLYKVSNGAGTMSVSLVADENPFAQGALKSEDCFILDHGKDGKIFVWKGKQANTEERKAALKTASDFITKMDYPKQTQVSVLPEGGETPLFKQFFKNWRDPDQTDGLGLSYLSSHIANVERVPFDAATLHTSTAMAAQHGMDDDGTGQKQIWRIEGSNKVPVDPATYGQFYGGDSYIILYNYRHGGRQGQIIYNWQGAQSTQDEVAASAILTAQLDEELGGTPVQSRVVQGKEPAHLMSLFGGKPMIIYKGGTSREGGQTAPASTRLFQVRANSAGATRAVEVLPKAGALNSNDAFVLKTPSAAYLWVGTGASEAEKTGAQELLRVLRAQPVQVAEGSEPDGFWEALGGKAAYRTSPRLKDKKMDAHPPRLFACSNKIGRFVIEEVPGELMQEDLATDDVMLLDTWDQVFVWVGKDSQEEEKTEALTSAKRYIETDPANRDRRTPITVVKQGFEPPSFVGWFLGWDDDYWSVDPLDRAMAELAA
UniProt Q96IZ0: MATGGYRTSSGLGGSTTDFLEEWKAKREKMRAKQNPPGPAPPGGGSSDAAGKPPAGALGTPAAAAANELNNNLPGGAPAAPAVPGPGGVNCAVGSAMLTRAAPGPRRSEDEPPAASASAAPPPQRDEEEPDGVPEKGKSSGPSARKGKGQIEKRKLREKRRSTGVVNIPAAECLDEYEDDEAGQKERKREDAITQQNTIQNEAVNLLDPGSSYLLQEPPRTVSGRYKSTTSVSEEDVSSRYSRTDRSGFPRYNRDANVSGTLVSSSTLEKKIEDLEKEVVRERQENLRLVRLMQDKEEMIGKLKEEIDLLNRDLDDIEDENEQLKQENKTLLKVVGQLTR
UniProt Q14157: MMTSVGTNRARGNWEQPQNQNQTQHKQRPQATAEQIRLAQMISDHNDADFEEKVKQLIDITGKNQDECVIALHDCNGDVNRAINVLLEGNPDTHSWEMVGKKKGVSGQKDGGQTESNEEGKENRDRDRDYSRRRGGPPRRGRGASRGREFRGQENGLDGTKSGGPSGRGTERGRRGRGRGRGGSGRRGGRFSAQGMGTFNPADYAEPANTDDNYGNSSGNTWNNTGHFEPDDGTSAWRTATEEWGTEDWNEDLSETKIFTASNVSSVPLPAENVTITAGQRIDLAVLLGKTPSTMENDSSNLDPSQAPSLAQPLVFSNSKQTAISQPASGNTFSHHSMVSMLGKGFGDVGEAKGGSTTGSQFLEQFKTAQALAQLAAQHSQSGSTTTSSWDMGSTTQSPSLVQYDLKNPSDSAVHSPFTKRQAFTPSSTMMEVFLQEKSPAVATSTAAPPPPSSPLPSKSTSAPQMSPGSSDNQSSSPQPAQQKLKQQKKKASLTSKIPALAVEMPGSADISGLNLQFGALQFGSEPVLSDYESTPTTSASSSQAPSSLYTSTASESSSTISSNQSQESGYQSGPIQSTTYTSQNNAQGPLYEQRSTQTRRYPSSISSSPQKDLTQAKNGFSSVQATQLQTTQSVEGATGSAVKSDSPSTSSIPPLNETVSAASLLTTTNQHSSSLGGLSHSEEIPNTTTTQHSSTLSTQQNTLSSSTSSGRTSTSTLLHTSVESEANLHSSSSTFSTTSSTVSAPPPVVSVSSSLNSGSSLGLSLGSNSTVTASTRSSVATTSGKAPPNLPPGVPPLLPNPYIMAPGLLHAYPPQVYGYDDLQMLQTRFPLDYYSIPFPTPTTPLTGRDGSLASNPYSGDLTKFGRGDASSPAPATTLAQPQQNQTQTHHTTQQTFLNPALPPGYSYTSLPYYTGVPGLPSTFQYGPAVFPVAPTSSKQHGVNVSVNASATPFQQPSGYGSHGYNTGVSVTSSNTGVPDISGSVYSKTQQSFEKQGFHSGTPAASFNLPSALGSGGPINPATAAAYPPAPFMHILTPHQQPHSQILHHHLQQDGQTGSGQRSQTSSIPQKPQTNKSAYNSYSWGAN
UniProt Q7TSJ2: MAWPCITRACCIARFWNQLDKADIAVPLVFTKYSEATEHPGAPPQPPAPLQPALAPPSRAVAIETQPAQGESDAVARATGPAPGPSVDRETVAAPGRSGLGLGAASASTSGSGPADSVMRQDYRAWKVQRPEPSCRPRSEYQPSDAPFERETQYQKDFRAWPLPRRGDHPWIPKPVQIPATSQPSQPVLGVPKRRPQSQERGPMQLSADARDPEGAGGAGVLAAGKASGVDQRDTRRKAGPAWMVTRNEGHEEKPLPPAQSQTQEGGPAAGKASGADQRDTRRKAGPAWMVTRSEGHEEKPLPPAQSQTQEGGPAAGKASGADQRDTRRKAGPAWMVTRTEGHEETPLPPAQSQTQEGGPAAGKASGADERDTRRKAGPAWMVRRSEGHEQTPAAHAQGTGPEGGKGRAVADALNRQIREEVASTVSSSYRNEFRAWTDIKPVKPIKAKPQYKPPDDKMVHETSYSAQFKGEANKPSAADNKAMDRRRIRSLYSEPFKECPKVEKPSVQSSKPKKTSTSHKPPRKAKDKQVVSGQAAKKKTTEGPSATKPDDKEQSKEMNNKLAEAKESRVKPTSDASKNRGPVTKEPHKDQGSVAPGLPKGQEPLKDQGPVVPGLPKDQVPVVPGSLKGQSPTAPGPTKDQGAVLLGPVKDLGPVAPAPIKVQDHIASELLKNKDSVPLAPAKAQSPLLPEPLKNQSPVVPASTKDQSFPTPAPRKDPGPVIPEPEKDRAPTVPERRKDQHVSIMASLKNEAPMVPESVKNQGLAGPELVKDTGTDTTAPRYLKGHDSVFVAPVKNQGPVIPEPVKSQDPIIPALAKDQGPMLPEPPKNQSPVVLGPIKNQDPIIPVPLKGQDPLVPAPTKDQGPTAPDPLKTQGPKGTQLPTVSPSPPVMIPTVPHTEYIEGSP
UniProt Q7Z6R9: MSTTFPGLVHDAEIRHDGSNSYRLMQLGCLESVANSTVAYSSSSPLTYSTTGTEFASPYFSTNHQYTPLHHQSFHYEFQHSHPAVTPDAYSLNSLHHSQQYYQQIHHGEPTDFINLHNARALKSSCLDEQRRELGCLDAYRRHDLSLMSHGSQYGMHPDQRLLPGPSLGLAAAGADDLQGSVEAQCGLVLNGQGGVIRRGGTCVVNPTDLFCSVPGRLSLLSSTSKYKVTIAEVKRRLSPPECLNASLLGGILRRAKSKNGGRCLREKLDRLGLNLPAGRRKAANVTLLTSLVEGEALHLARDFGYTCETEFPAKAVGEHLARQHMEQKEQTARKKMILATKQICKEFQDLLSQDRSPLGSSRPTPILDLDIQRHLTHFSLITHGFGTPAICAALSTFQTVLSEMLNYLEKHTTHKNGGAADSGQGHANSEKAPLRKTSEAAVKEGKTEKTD
UniProt Q61464: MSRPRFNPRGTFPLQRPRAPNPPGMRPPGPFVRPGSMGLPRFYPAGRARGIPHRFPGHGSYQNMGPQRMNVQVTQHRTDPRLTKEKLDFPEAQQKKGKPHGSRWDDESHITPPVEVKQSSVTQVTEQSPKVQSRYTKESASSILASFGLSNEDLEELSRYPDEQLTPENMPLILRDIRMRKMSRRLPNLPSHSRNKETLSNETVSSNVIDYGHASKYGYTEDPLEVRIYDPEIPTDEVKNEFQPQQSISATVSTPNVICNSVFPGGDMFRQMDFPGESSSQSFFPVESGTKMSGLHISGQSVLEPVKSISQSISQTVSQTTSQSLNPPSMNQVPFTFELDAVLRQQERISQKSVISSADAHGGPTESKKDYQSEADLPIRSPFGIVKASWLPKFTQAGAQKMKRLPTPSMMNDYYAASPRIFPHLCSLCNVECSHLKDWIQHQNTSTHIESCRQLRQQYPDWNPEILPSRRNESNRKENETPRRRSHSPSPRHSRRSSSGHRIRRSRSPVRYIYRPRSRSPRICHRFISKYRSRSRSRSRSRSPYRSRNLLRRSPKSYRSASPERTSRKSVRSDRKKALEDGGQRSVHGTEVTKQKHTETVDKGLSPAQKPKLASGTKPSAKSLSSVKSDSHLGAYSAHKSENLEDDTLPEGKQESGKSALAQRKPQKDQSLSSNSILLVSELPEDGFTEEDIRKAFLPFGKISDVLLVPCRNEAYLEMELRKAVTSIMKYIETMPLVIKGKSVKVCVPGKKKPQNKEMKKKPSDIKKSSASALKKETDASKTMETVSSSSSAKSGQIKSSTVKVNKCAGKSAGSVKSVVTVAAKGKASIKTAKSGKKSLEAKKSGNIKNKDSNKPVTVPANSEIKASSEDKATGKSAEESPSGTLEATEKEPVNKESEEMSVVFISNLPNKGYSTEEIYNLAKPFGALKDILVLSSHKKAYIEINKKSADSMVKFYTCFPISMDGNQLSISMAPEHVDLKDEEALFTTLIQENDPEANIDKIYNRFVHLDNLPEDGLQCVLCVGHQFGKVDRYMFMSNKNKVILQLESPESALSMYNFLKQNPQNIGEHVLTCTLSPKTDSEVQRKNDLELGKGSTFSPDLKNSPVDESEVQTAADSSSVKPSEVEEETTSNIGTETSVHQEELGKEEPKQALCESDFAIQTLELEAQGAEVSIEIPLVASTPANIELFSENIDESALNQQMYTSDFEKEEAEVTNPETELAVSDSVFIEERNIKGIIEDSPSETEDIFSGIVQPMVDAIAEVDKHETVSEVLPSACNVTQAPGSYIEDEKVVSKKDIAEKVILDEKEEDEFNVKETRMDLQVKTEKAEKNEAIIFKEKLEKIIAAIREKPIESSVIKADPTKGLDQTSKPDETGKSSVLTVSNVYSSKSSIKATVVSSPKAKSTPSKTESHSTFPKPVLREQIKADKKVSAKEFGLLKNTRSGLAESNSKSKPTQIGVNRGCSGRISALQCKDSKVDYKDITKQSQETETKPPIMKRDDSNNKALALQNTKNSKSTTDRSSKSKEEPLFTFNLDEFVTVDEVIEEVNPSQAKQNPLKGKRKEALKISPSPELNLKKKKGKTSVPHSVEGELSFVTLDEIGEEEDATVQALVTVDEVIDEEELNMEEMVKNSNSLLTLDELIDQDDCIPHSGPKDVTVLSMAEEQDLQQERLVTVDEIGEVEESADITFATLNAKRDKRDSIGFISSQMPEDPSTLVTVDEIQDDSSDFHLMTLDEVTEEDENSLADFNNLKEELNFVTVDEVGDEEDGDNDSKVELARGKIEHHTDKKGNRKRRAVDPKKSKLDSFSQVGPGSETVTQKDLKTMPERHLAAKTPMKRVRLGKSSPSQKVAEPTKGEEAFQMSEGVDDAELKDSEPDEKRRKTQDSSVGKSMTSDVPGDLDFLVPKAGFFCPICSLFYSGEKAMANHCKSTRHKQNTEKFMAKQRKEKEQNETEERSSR

Experiments:
[1] = target: LINE-1 ORF1p (mouse) (mouse (endogenous in MN9D)) (UniProt P11260); assay: affinity purification with mass spectrometry; IP of endogenous ORF1p with antibody-coupled Dynabeads from sonicated lysate of differentiated MN9D neurons (day 10), against rabbit IgG, n = 5 IPs; 10 mM Tris HCl pH 8, 150 mM NaCl, overnight 4°C; on-bead digest, LC-MS/MS (DIA), label-free quantification; ratio ≥2, P ≤0.05
[2] = target: LINE-1 ORF1p (human) (human (endogenous in LUHMES)) (UniProt Q9UN81); assay: affinity purification with mass spectrometry; IP of endogenous ORF1p with antibody-coupled Dynabeads from sonicated lysate of differentiated LUHMES neurons (day 5), against rabbit IgG, n = 5 IPs; 10 mM Tris HCl pH 8, 150 mM NaCl, overnight 4°C; on-bead digest, LC-MS/MS (DDA), label-free quantification; fold change ≥2, P ≤0.05

Molecule: ARID1A (mouse) (from UniProt A2BH40 1-2283)
binding [1]: binds

Molecule: CBX8 (human) (from UniProt Q9HC52 1-389)
binding [2]: binds

Molecule: CHD4 (human) (from UniProt Q14839 1-1912)
binding [2]: binds

Molecule: ELAVL2 (mouse) (from UniProt Q60899 1-360)
binding [1]: binds

Molecule: FXR2 (human) (from UniProt P51116 1-673)
binding [2]: binds

Molecule: GSN (human) (from UniProt P06396 28-782)
binding [2]: binds

Molecule: HELZ (mouse) (from UniProt Q6DFV5 1-1964)
binding [1]: binds

Molecule: IGF2BP3 (human) (from UniProt O00425 1-579)
binding [2]: binds

Molecule: IGF2BP3 (mouse) (from UniProt Q9CPN8 1-579)
binding [1]: binds

Molecule: KPNA3 (mouse) (from UniProt O35344 1-521)
binding [1]: binds

Molecule: LMNA (human) (from UniProt P02545 1-646)
binding [2]: binds

Molecule: MAP6 (human) (from UniProt Q96JE9 1-813)
binding [2]: binds

Molecule: MYH9 (human) (from UniProt P35579 1-1960)
binding [2]: binds

Molecule: PAWR (human) (from UniProt Q96IZ0 1-340)
binding [2]: binds

Molecule: POLR2M (mouse) (from UniProt Q6P6I6 1-366)
binding [1]: binds

Molecule: RANBP2 (human) (from UniProt P49792 1-3224)
binding [2]: binds

Molecule: TOP2B (human) (from UniProt Q02880 1-1626)
binding [2]: binds

Molecule: TP53BP1 (human) (from UniProt Q12888 1-1972)
binding [2]: binds

Molecule: UBAP2L (human) (from UniProt Q14157 1-1087)
binding [2]: binds

Molecule: XRCC6 (Ku70) (human) (from UniProt P12956 1-609)
binding [2]: binds

Molecule: ZFHX3 (mouse) (from UniProt Q61329 1-3726)
binding [1]: binds

B1: MLF2 (human) (protein, UniProt Q15773 1-248)
chain: MFRFMRDVEPEDPMFLMDPFAIHRQHMSRMLSGGFGYSPFLSITDGNMPGTRPASRRMQQAGAVSPFGMLGMSGGFMDMFGMMNDMIGNMEHMTAGGNCQTFSSSTVISYSNTGDGAPKVYQETSEMRSAPGGIRETRRTVRDSDSGLEQMSIGHHIRDRAHILQRSRNHRTGDQEERQDYINLDESEAAAFDDEWRRETSRFRQQRPLEFRRLESSGAGGRRAEGPPRLAIQGPEDSPSRQSRRYDW
binding [2]: binds

Now from value to molecule:

binding [1]: binds
Molecule: ARID1B (mouse) (from UniProt E9Q4N7 1-2306)

binding [2]: binds
Molecule: ATXN2 (human) (from UniProt Q99700 1-1313)

binding [2]: binds
Molecule: BCLAF1 (human) (from UniProt Q9NYF8 1-920)

binding [2]: binds
Molecule: CLASP1 (human) (from UniProt Q7Z460 1-1538)

binding [1]: binds
Molecule: CLASP1 (mouse) (from UniProt Q80TV8 1-1535)

binding [2]: binds
Molecule: CTNNB1 (human) (from UniProt P35222 1-781)

binding [2]: binds
Molecule: DPF2 (human) (from UniProt Q92785 1-391)

binding [2]: binds
Molecule: FXR1 (human) (from UniProt P51114 1-621)

binding [1]: binds
Molecule: FXR1 (mouse) (from UniProt Q61584 1-677)

binding [1]: binds
Molecule: KHDRBS1 (mouse) (from UniProt Q60749 1-443)

binding [2]: binds
Molecule: LBR (human) (from UniProt Q14739 1-615)

binding [2]: binds
Molecule: MACROH2A1 (human) (from UniProt O75367 1-369)

binding [2]: binds
Molecule: MACROH2A2 (human) (from UniProt Q9P0M6 1-372)

binding [2]: binds
Molecule: MAP1B (human) (from UniProt P46821 1-2468)

binding [1]: binds
Molecule: MAP1B (mouse) (from UniProt P14873 1-2464)

binding [1]: binds
Molecule: MAP6 (mouse) (from UniProt Q7TSJ2 1-906)

binding [2]: binds
Molecule: NUMA1 (human) (from UniProt Q14980 1-2115)

binding [2]: binds
Molecule: NUP153 (human) (from UniProt P49790 1-1475)

binding [2]: binds
Molecule: PSIP1 (human) (from UniProt O75475 1-530)

binding [2]: binds
Molecule: RCOR2 (corepressor 2 of REST) (human) (from UniProt Q8IZ40 1-523)

binding [1]: binds
Molecule: RCOR2 (corepressor 2 of REST) (mouse) (from UniProt Q8C796 1-523)

binding [2]: binds
Molecule: SMARCA4 (human) (from UniProt P51532 1-1647)

binding [2]: binds
Molecule: SUPT16H (human) (from UniProt Q9Y5B9 1-1047)

binding [2]: binds
Molecule: TFAP2D (human) (from UniProt Q7Z6R9 1-452)

binding [2]: binds
Molecule: ZC3H11A (human) (from UniProt O75152 1-810)

binding [1]: binds
Molecule: ZNF638 (mouse) (from UniProt Q61464 1-1960)

binding [2]: binds
B2: PRKRA (human) (protein, UniProt O75569 1-313)
chain: MSQSRHRAEAPPLEREDSGTFSLGKMITAKPGKTPIQVLHEYGMKTKNIPVYECERSDVQIHVPTFTFRVTVGDITCTGEGTSKKLAKHRAAEAAINILKANASICFAVPDPLMPDPSKQPKNQLNPIGSLQELAIHHGWRLPEYTLSQEGGPAHKREYTTICRLESFMETGKGASKKQAKRNAAEKFLAKFSNISPENHISLTNVVGHSLGCTWHSLRNSPGEKINLLKRSLLSIPNTDYIQLLSEIAKEQGFNITYLDIDELSANGQYQCLAELSTSPITVCHGSGISCGNAQSDAAHNALQYLKIIAERK

binding [2]: binds
B3: MORC2 (human) (protein, UniProt Q9Y6X9 1-1032)
chain: MAFTNYSSLNRAQLTFEYLHTNSTTHEFLFGALAELVDNARDADATRIDIYAERREDLRGGFMLCFLDDGAGMDPSDAASVIQFGKSAKRTPESTQIGQYGNGLKSGSMRIGKDFILFTKKEDTMTCLFLSRTFHEEEGIDEVIVPLPTWNARTREPVTDNVEKFAIETELIYKYSPFRTEEEVMTQFMKIPGDSGTLVIIFNLKLMDNGEPELDIISNPRDIQMAETSPEGTKPERRSFRAYAAVLYIDPRMRIFIHGHKVQTKRLSCCLYKPRMYKYTSSRFKTRAEQEVKKAEHVARIAEEKAREAESKARTLEVRLGGDLTRDSRVMLRQVQNRAITLRREADVKKRIKEAKQRALKEPKELNFVFGVNIEHRDLDGMFIYNCSRLIKMYEKVGPQLEGGMACGGVVGVVDVPYLVLEPTHNKQDFADAKEYRHLLRAMGEHLAQYWKDIAIAQRGIIKFWDEFGYLSANWNQPPSSELRYKRRRAMEIPTTIQCDLCLKWRTLPFQLSSVEKDYPDTWVCSMNPDPEQDRCEASEQKQKVPLGTFRKDMKTQEEKQKQLTEKIRQQQEKLEALQKTTPIRSQADLKKLPLEVTTRPSTEEPVRRPQRPRSPPLPAVIRNAPSRPPSLPTPRPASQPRKAPVISSTPKLPALAAREEASTSRLLQPPEAPRKPANTLVKTASRPAPLVQQLSPSLLPNSKSPREVPSPKVIKTPVVKKTESPIKLSPATPSRKRSVAVSDEEEVEEEAERRKERCKRGRFVVKEEKKDSNELSDSAGEEDSADLKRAQKDKGLHVEVRVNREWYTGRVTAVEVGKHVVRWKVKFDYVPTDTTPRDRWVEKGSEDVRLMKPPSPEHQSLDTQQEGGEEEVGPVAQQAIAVAEPSTSECLRIEPDTTALSTNHETIDLLVQILRNCLRYFLPPSFPISKKQLSAMNSDELISFPLKEYFKQYEVGLQNLCNSYQSRADSRAKASEESLRTSERKLRETEEKLQKLRTNIVALLQKVQEDIDINTDDELDAYIEDLITKGD

binding [2]: binds
B4: THRAP3 (human) (protein, UniProt Q9Y2W1 1-955)
chain: MSKTNKSKSGSRSSRSRSASRSRSRSFSKSRSRSRSLSRSRKRRLSSRSRSRSYSPAHNRERNHPRVYQNRDFRGHNRGYRRPYYFRGRNRGFYPWGQYNRGGYGNYRSNWQNYRQAYSPRRGRSRSRSPKRRSPSPRSRSHSRNSDKSSSDRSRRSSSSRSSSNHSRVESSKRKSAKEKKSSSKDSRPSQAAGDNQGDEAKEQTFSGGTSQDTKASESSKPWPDATYGTGSASRASAVSELSPRERSPALKSPLQSVVVRRRSPRPSPVPKPSPPLSSTSQMGSTLPSGAGYQSGTHQGQFDHGSGSLSPSKKSPVGKSPPSTGSTYGSSQKEESAASGGAAYTKRYLEEQKTENGKDKEQKQTNTDKEKIKEKGSFSDTGLGDGKMKSDSFAPKTDSEKPFRGSQSPKRYKLRDDFEKKMADFHKEEMDDQDKDKAKGRKESEFDDEPKFMSKVIGANKNQEEEKSGKWEGLVYAPPGKEKQRKTEELEEESFPERSKKEDRGKRSEGGHRGFVPEKNFRVTAYKAVQEKSSSPPPRKTSESRDKLGAKGDFPTGKSSFSITREAQVNVRMDSFDEDLARPSGLLAQERKLCRDLVHSNKKEQEFRSIFQHIQSAQSQRSPSELFAQHIVTIVHHVKEHHFGSSGMTLHERFTKYLKRGTEQEAAKNKKSPEIHRRIDISPSTFRKHGLAHDEMKSPREPGYKAEGKYKDDPVDLRLDIERRKKHKERDLKRGKSRESVDSRDSSHSRERSAEKTEKTHKGSKKQKKHRRARDRSRSSSSSSQSSHSYKAEEYTEETEEREESTTGFDKSRLGTKDFVGPSERGGGRARGTFQFRARGRGWGRGNYSGNNNNNSNNDFQKRNREEEWDPEYTPKSKKYYLHDDREGEGSDKWVSRGRGRGAFPRGRGRFMFRKSSTSPKWAHDKFSGEEGEIEDDESGTENREEKDNIQPTTE

binding [2]: binds
B5: SNW1 (human) (protein, UniProt Q13573 1-536)
chain: MALTSFLPAPTQLSQDQLEAEEKARSQRSRQTSLVSSRREPPPYGYRKGWIPRLLEDFGDGGAFPEIHVAQYPLDMGRKKKMSNALAIQVDSEGKIKYDAIARQGQSKDKVIYSKYTDLVPKEVMNADDPDLQRPDEEAIKEITEKTRVALEKSVSQKVAAAMPVRAADKLAPAQYIRYTPSQQGVAFNSGAKQRVIRMVEMQKDPMEPPRFKINKKIPRGPPSPPAPVMHSPSRKMTVKEQQEWKIPPCISNWKNAKGYTIPLDKRLAADGRGLQTVHINENFAKLAEALYIADRKAREAVEMRAQVERKMAQKEKEKHEEKLREMAQKARERRAGIKTHVEKEDGEARERDEIRHDRRKERQHDRNLSRAAPDKRSKLQRNENRDISEVIALGVPNPRTSNEVQYDQRLFNQSKGMDSGFAGGEDEIYNVYDQAWRGGKDMAQSIYRPSKNLDKDMYGDDLEARIKTNRFVPDKEFSGSDRRQRGREGPVQFEEDPFGLDKFLEEAKQHGGSKRPSDSSRPKEHEHEGKKRRKE

No constants are given. Whether binding was seen depends on the method and setting. Binding seen in cells or lysates may run through a third protein. A yes stands for co-enrichment or nearness to the bait. Other partners may have been found. Each block holds one molecule with its values, some of them ahead of it.
